In article PMC4488268:

Assays:
[1] = biological target: T1, full-length ZBTB16 fused to the GAL4 DNA-binding domain (human) (UniProt Q05516); experiment: two-hybrid; … GAL4 system (Clontech), yeast strain AH109; full-length ZBTB16 on the GAL4 DNA-binding domain (pGBKT7) as bait, NLRP7 constructs on the GAL4 activation domain (pGADT7); growth on SDhigh
T1 sequence: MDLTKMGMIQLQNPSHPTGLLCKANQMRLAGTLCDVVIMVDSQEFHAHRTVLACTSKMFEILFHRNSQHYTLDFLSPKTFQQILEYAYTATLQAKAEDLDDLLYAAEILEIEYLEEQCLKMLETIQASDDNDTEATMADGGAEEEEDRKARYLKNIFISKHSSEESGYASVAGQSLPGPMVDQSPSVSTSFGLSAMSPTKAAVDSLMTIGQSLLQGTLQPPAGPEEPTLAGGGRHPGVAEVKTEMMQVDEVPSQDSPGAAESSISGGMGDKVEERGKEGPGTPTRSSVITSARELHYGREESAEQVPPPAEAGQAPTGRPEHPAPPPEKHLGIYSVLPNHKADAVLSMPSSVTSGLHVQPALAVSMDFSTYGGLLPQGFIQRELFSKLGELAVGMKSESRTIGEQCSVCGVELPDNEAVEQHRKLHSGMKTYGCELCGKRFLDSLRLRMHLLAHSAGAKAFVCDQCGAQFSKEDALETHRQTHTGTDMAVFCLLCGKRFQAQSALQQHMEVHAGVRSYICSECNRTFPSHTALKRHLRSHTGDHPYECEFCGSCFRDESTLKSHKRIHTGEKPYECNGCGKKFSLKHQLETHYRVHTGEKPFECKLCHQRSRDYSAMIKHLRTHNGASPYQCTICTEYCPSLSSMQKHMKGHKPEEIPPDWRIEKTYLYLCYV

[2] = biological target: T2, full-length NLRP7, Flag-tagged (human) (UniProt Q8WX94); experiment: co-IP; HEK293T cells transiently co-transfected with Flag- and Myc-tagged constructs; immunoprecipitation with an anti-Flag antibody, immunoblot; band density quantified
T2 sequence: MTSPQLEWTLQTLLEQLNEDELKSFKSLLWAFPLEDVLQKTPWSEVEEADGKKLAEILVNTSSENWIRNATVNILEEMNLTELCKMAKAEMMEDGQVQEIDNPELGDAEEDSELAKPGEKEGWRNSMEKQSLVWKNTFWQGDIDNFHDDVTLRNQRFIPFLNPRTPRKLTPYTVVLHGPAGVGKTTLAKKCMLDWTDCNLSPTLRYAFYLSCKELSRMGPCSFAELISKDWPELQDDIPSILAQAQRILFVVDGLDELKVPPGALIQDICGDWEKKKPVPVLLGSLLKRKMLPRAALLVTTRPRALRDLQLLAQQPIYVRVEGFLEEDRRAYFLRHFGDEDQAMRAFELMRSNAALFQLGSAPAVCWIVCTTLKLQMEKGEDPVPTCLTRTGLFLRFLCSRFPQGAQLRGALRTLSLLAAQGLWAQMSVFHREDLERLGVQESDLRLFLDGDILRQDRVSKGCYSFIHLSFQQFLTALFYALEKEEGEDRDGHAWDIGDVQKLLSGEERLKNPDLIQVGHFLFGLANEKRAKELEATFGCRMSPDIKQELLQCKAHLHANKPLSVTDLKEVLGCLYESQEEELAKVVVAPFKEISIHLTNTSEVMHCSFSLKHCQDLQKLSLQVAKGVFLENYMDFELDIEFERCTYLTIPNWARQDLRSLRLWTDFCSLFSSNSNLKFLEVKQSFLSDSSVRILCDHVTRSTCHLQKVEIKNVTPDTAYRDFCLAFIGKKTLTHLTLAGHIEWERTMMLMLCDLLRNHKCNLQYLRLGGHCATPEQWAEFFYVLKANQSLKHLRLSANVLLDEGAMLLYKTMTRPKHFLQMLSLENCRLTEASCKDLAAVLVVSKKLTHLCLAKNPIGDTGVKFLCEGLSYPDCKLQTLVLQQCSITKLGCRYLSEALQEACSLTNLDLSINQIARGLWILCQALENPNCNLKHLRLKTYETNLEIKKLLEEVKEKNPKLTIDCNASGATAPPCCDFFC

[3] = biological target: NLRP7 ΔNAD/LRR, Flag-tagged (human); experiment: as above
[4] = biological target: NLRP7 ΔPYD/NACHT, Flag-tagged (human); experiment: as above
[5] = biological target: NLRP7 ΔPYD, Flag-tagged (human); experiment: as above
[6] = biological target: NLRP7 ΔNACHT, Flag-tagged (human); experiment: as above
[7] = biological target: NLRP7 ΔPYD/LRR, Flag-tagged (human); experiment: as above
[8] = biological target: NLRP7 LRR domain, Flag-tagged (human); experiment: as above
[9] = biological target: NLRP7 ΔLRR, Flag-tagged (human); experiment: as above

| Molecule | binding [1] | binding [6] | also measured |
| --- | --- | --- | --- |
| NLRP7 NAD domain fused to the GAL4 activation domain (human) (domain or fragment) | binds | – | – |
| NLRP7 ΔLRR fused to the GAL4 activation domain (human) (domain or fragment) | binds | – | – |
| ZBTB16 deletion construct del2 (RD2-3ZN), Myc-tagged (from UniProt Q05516) (domain or fragment) | – | – | binding [2]: no binding |
| NLRP7 ΔNAD/LRR fused to the GAL4 activation domain (human) (domain or fragment) | binds weakly | – | – |
| NLRP7 ΔPYD/LRR fused to the GAL4 activation domain (human) (domain or fragment) | binds weakly | – | – |
| NLRP7 ΔPYD fused to the GAL4 activation domain (human) (domain or fragment) | no binding | – | – |
| full-length ZBTB16, Myc-tagged (protein, UniProt Q05516 1-673) MDLTKMGMIQLQNPSHPTGLLCKANQMRLAGTLCDVVIMVDSQEFHAHRTVLACTSKMFEILFHRNSQHYTLDFLSPKTFQQILEYAYTATLQAKAEDLDDLLYAAEILEIEYLEEQCLKMLETIQASDDNDTEATMADGGAEEEEDRKARYLKNIFISKHSSEESGYASVAGQSLPGPMVDQSPSVSTSFGLSAMSPTKAAVDSLMTIGQSLLQGTLQPPAGPEEPTLAGGGRHPGVAEVKTEMMQVDEVPSQDSPGAAESSISGGMGDKVEERGKEGPGTPTRSSVITSARELHYGREESAEQVPPPAEAGQAPTGRPEHPAPPPEKHLGIYSVLPNHKADAVLSMPSSVTSGLHVQPALAVSMDFSTYGGLLPQGFIQRELFSKLGELAVGMKSESRTIGEQCSVCGVELPDNEAVEQHRKLHSGMKTYGCELCGKRFLDSLRLRMHLLAHSAGAKAFVCDQCGAQFSKEDALETHRQTHTGTDMAVFCLLCGKRFQAQSALQQHMEVHAGVRSYICSECNRTFPSHTALKRHLRSHTGDHPYECEFCGSCFRDESTLKSHKRIHTGEKPYECNGCGKKFSLKHQLETHYRVHTGEKPFECKLCHQRSRDYSAMIKHLRTHNGASPYQCTICTEYCPSLSSMQKHMKGHKPEEIPPDWRIEKTYLYLCYV | – | no binding | binding [3]: binds weakly; binding [4]: no binding; binding [5]: binds; binding [7]: binds; binding [8]: binds weakly; binding [9]: binds |
| ZBTB16 deletion construct del1 (aa 1–164), Myc-tagged (domain or fragment, UniProt Q05516 1-164) MDLTKMGMIQLQNPSHPTGLLCKANQMRLAGTLCDVVIMVDSQEFHAHRTVLACTSKMFEILFHRNSQHYTLDFLSPKTFQQILEYAYTATLQAKAEDLDDLLYAAEILEIEYLEEQCLKMLETIQASDDNDTEATMADGGAEEEEDRKARYLKNIFISKHSSE | – | binds weakly | – |
| ZBTB16 deletion construct del4 (aa 268–673), Myc-tagged (domain or fragment, UniProt Q05516 268-673) MGDKVEERGKEGPGTPTRSSVITSARELHYGREESAEQVPPPAEAGQAPTGRPEHPAPPPEKHLGIYSVLPNHKADAVLSMPSSVTSGLHVQPALAVSMDFSTYGGLLPQGFIQRELFSKLGELAVGMKSESRTIGEQCSVCGVELPDNEAVEQHRKLHSGMKTYGCELCGKRFLDSLRLRMHLLAHSAGAKAFVCDQCGAQFSKEDALETHRQTHTGTDMAVFCLLCGKRFQAQSALQQHMEVHAGVRSYICSECNRTFPSHTALKRHLRSHTGDHPYECEFCGSCFRDESTLKSHKRIHTGEKPYECNGCGKKFSLKHQLETHYRVHTGEKPFECKLCHQRSRDYSAMIKHLRTHNGASPYQCTICTEYCPSLSSMQKHMKGHKPEEIPPDWRIEKTYLYLCYV | – | binds weakly | binding [7]: binds |

No constants are given. Whether binding was seen depends on the method and setting. For some of these results: Binding can be weak; no strength is given. Sequences can lack the tags named with a protein. For some of these results: Binding seen in cells or lysates may run through a third protein.
